From article PMC2360413

The chains behind the UniProt entries cited, without tags or fusion partners. Residues count along the entry.
UniProt P21926: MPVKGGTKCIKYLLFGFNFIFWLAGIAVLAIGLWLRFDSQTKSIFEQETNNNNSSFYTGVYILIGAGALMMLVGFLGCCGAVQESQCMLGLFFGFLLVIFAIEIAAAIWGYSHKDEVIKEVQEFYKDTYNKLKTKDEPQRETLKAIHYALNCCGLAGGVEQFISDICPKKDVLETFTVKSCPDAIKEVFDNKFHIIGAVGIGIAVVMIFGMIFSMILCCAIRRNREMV
UniProt P38646, residues 47-679: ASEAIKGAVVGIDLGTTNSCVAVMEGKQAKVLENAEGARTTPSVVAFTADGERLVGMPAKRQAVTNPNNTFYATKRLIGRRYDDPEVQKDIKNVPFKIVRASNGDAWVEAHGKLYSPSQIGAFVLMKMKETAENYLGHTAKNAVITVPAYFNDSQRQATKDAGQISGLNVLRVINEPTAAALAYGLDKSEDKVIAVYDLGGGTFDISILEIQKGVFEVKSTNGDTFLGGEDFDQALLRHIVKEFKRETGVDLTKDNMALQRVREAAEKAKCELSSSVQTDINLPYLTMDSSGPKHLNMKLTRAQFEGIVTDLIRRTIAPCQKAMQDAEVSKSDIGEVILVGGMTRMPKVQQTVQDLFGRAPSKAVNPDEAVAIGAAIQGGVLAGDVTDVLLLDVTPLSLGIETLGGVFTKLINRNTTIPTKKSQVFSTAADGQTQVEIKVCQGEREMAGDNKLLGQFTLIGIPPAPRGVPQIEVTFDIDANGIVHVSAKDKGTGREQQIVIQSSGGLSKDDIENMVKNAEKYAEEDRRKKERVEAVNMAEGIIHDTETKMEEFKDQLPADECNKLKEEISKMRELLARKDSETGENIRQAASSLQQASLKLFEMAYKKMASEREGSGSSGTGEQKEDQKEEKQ

Biological target: Cluster-of-differentiation antigen 9 (CD9) (human (endogenous in PC-3 and PC-3M-LN4)) (UniProt P21926)
Test: affinity purification with mass spectrometry; 1 mg precleared 1% Brij 97 lysate of PC-3 and PC-3M-LN4 cells, overnight with anti-CD9 mAb MM2/57 and protein G Sepharose; non-reducing SDS-PAGE, silver staining, 75-kDa band excised, MALDI-TOF MS

Substance: HSPA9B protein, also known as mortalin (from UniProt P38646 47-679)
- binding: binds

No constants are given. Whether binding was seen depends on the method and setting. Binding seen in cells or lysates may run through a third protein. Here binding means that the protein was enriched with, or labelled near, the bait; the list need not be complete.
